Assay results published in paper PMC10908107.
No constants are given. Whether binding was seen depends on the method and setting. In cells and extracts the contact can be indirect. Some entries that bind do so weakly or less than the wild type.

The chains behind the UniProt entries cited, without tags or fusion partners.
UniProt P38432: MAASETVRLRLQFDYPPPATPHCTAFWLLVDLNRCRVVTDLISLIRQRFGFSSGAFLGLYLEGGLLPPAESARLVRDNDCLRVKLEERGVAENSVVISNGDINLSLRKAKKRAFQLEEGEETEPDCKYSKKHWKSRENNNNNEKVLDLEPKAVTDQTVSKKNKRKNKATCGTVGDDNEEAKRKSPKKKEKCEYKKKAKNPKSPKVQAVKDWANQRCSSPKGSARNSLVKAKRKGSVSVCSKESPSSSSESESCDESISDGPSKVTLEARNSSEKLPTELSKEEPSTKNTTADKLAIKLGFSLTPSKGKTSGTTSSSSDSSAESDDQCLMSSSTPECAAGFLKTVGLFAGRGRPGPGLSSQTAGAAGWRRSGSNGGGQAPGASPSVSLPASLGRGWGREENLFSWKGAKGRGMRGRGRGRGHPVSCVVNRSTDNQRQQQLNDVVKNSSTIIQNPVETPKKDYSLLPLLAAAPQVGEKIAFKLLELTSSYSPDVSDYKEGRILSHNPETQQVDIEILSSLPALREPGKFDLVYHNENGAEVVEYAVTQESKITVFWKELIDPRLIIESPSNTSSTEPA
UniProt O14746: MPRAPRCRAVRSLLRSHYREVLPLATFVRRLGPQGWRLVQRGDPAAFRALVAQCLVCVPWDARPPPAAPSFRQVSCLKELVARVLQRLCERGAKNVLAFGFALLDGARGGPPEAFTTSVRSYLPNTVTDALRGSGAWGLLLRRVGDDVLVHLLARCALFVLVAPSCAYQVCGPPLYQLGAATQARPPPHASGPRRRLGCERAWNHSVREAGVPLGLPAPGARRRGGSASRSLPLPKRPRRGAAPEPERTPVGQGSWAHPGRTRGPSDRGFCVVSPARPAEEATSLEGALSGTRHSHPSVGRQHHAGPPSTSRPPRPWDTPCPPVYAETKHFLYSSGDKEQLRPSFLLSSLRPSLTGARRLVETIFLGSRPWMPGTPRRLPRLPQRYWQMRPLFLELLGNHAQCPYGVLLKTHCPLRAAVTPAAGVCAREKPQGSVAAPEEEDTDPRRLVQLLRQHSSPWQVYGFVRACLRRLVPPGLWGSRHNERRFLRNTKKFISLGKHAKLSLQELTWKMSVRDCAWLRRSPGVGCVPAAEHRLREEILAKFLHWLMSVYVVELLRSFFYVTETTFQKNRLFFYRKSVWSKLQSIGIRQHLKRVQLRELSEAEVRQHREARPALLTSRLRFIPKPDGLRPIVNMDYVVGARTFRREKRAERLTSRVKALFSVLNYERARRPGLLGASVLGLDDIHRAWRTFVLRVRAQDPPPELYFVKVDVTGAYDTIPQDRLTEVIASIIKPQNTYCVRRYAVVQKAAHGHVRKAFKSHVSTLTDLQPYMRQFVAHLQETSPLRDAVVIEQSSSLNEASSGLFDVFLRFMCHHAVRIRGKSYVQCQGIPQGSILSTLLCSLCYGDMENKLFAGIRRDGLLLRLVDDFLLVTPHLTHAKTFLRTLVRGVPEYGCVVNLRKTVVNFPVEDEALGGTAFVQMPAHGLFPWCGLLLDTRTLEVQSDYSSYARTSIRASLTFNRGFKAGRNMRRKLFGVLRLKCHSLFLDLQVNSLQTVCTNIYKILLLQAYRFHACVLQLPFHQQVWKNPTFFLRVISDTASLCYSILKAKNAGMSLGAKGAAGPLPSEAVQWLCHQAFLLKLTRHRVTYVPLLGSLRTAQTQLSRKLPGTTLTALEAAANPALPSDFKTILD
UniProt P98175: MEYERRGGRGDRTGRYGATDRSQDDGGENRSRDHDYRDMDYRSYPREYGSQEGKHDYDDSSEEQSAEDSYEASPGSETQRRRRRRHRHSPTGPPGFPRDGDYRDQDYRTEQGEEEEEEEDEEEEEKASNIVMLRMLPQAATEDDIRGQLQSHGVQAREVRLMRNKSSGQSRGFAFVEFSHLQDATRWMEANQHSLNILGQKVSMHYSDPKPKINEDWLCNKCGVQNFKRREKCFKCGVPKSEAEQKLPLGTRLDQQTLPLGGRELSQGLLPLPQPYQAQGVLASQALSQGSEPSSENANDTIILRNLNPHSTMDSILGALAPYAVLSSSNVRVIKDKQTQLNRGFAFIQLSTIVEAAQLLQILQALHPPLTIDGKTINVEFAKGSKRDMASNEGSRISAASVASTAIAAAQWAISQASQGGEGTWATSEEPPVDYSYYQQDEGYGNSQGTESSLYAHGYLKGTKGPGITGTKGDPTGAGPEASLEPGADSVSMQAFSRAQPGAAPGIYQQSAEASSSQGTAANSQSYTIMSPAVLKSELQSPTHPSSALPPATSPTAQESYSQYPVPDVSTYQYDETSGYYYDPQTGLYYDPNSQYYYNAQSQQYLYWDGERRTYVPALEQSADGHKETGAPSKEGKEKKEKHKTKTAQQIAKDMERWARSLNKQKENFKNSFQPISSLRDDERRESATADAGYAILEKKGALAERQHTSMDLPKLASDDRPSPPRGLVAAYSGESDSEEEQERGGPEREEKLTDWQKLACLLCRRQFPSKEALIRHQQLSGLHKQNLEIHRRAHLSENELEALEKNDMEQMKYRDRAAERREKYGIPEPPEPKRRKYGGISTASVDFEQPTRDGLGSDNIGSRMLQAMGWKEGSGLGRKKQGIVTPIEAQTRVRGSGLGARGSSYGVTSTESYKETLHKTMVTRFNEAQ

Assays:
Assay in all cases: co-IP; endogenous proteins of A549 cells lysed in IP lysis buffer; antibodies at 4 °C overnight, Protein A/G magnetic beads, western blot; cells shNC, shPinX1 or shRBM10; for PinX1/TPP1 with hTERT also S-phase cells enriched by thymidine double blocking
[1] = molecular target: T1, PIN2/TERF1-interacting telomerase inhibitor (PinX1) (human (endogenous in A549)) (UniProt Q96BK5)
T1 sequence: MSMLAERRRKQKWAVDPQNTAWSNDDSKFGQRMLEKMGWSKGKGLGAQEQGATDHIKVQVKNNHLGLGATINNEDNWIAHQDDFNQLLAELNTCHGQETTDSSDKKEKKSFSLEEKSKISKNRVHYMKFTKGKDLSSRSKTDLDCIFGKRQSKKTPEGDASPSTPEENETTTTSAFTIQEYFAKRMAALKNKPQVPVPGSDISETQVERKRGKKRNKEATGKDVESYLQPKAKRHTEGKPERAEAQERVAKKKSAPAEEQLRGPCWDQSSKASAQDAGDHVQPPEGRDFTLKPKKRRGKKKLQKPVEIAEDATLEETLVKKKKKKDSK

[2] = molecular target: coilin (human (endogenous in A549)) (UniProt P38432)
[3] = molecular target: hTERT (human (endogenous in A549)) (UniProt O14746)

## RNA-binding motif protein 10 (RBM10) (from UniProt P98175 1-930)
[1]
  binding: binds

## hTERT (from UniProt O14746 1-1132)
[2]
  binding: binds

B1: PIN2/TERF1-interacting telomerase inhibitor (PinX1) (protein, UniProt Q96BK5 1-328)
chain: MSMLAERRRKQKWAVDPQNTAWSNDDSKFGQRMLEKMGWSKGKGLGAQEQGATDHIKVQVKNNHLGLGATINNEDNWIAHQDDFNQLLAELNTCHGQETTDSSDKKEKKSFSLEEKSKISKNRVHYMKFTKGKDLSSRSKTDLDCIFGKRQSKKTPEGDASPSTPEENETTTTSAFTIQEYFAKRMAALKNKPQVPVPGSDISETQVERKRGKKRNKEATGKDVESYLQPKAKRHTEGKPERAEAQERVAKKKSAPAEEQLRGPCWDQSSKASAQDAGDHVQPPEGRDFTLKPKKRRGKKKLQKPVEIAEDATLEETLVKKKKKKDSK
[3]
  binding: binds
